PubChem BioAssay AID1259267, Sanger Institute – 2017
This is a random part of 794 deposited reagents. Of all reagents, 9 (1.1%) were called active. 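Viability capped at 1; calls reflect loss of viability from knock-down alone, not synergy with drugs.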 Further read-outs or replicates are left out here. The record does not give: the amount of reagent, the time to read-out.

- Purpose: 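Essential and drug-synergistic knock-downs in GP5D bowel cancer cells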 (primary screen)
- Cells: human GP5D colorectal cancer cells
- Reagent: siRNA pool against human genes
- Treatment: anchor drugs at low dose: BYL719 1 µM, cetuximab 5 µg/ml, trametinib 10 nM, or DMSO vehicle
- Detection: 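Viability against non-targeting pool, replicate mean: robust z-score for knock-down alone, fraction with DMSO, synergy with BYL719 1 µM, cetuximab 5 µg/ml, trametinib 10 nM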
- Reading the numbers: robust z-score, knock-down alone and viability with DMSO: higher = more viable cells
- Units: viability with DMSO in fraction of control
- Rule for the call: 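a robust z-score below -3 for the knock-down by itself makes a gene active, i.e. essential alone; synergy scores are ignored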
- Calls: active = essential alone; inactive = not essential

The opening 2 entries, ahead of the listing:
PXK (PX domain containing serine/threonine kinase like)
- robust z-score, knock-down alone: -1.06
- viability with DMSO: 0.602
- activity call: inactive

HIPK4 (homeodomain interacting protein kinase 4)
- robust z-score, knock-down alone: 0.817
- viability with DMSO: 1
- activity call: inactive

Main list, from the first entry:
PXK (PX domain containing serine/threonine kinase like)
- robust z-score, knock-down alone: -1.06
- viability with DMSO: 0.602
- activity call: inactive

HIPK4 (homeodomain interacting protein kinase 4)
- robust z-score, knock-down alone: 0.817
- viability with DMSO: 1
- activity call: inactive

PRKCG (protein kinase C gamma)
- robust z-score, knock-down alone: -0.914
- viability with DMSO: 0.633
- activity call: inactive

MAP3K2 (mitogen-activated protein kinase kinase kinase 2)
- robust z-score, knock-down alone: 0.481
- viability with DMSO: 0.929
- activity call: inactive

PCK2 (phosphoenolpyruvate carboxykinase 2, mitochondrial)
- robust z-score, knock-down alone: 0.817
- viability with DMSO: 1
- activity call: inactive

NEK3 (NIMA related kinase 3)
- robust z-score, knock-down alone: -2.57
- viability with DMSO: 0.283
- activity call: inactive

SLK (STE20 like kinase)
- robust z-score, knock-down alone: 0.817
- viability with DMSO: 1
- activity call: inactive

NPR2 (natriuretic peptide receptor 2)
- robust z-score, knock-down alone: -0.16
- viability with DMSO: 0.793
- activity call: inactive

PI4KA (phosphatidylinositol 4-kinase alpha)
- robust z-score, knock-down alone: 0.0403
- viability with DMSO: 0.835
- activity call: inactive

TGFBR2 (transforming growth factor beta receptor 2)
- robust z-score, knock-down alone: 0.194
- viability with DMSO: 0.868
- activity call: inactive

PTK2B (protein tyrosine kinase 2 beta)
- robust z-score, knock-down alone: 0.387
- viability with DMSO: 0.909
- activity call: inactive

PTK7 (protein tyrosine kinase 7 (inactive))
- robust z-score, knock-down alone: -0.934
- viability with DMSO: 0.629
- activity call: inactive

SGK3 (serum/glucocorticoid regulated kinase family member 3)
- robust z-score, knock-down alone: 0.817
- viability with DMSO: 1
- activity call: inactive

MAPKAPK2 (MAPK activated protein kinase 2)
- robust z-score, knock-down alone: 0.0627
- viability with DMSO: 0.84
- activity call: inactive

CKS1B (CDC28 protein kinase regulatory subunit 1B)
- robust z-score, knock-down alone: 0.817
- viability with DMSO: 1
- activity call: inactive

CDK9 (cyclin dependent kinase 9)
- robust z-score, knock-down alone: 0.588
- viability with DMSO: 0.951
- activity call: inactive

FN1 (fibronectin 1)
- robust z-score, knock-down alone: 0.129
- viability with DMSO: 0.854
- activity call: inactive

EPHA3 (EPH receptor A3)
- robust z-score, knock-down alone: 0.535
- viability with DMSO: 0.94
- activity call: inactive

OBSCN
- robust z-score, knock-down alone: 0.817
- viability with DMSO: 1
- activity call: inactive
